Drawing on article PMC9792594, this text covers binding for one substance.

The target in this test is T1, soluble form of His-tagged chondroitin 4-O-sulfotransferase-1 (UniProt Q9NPF2).
T1 sequence: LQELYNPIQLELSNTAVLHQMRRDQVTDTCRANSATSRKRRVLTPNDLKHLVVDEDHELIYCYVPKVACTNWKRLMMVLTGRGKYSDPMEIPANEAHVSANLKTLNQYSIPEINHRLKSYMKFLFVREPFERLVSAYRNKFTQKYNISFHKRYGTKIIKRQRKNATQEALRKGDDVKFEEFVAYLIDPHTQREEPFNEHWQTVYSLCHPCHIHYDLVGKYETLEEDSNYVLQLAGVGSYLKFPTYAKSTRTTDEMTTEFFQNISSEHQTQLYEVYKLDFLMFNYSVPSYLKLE
Kind of test: pull-down; culture medium of COS-1 cells co-expressing soluble His-tagged C4ST-1 and FLAG-tagged FAM20 proteins; Ni-NTA agarose or anti-FLAG tag antibody beads, 4 °C, 1 h; washed with TBS with 0.05% Tween 20; eluted with imidazole or FLAG peptide; immunoblot. On the technique in general: A western blot detects proteins with antibodies after separation by electrophoresis.

Results are given in words; binding and its absence hold for the method and conditions named. Binding seen in cells or lysates may run through a third protein. Sequences can lack the tags named with a protein.

“soluble form of FLAG-tagged FAM20B (wild type) (enzyme)”: the binding result was “no binding”.
